This assay has as its target AAV2 capsids (adeno-associated virus serotype 2) (UniProt P03135). Put plainly: ELISA on capsids (FIGS. 3A-D).

Protein sequences, listed by entry. Tags and fused reporters are not part of them.
UniProt P03135: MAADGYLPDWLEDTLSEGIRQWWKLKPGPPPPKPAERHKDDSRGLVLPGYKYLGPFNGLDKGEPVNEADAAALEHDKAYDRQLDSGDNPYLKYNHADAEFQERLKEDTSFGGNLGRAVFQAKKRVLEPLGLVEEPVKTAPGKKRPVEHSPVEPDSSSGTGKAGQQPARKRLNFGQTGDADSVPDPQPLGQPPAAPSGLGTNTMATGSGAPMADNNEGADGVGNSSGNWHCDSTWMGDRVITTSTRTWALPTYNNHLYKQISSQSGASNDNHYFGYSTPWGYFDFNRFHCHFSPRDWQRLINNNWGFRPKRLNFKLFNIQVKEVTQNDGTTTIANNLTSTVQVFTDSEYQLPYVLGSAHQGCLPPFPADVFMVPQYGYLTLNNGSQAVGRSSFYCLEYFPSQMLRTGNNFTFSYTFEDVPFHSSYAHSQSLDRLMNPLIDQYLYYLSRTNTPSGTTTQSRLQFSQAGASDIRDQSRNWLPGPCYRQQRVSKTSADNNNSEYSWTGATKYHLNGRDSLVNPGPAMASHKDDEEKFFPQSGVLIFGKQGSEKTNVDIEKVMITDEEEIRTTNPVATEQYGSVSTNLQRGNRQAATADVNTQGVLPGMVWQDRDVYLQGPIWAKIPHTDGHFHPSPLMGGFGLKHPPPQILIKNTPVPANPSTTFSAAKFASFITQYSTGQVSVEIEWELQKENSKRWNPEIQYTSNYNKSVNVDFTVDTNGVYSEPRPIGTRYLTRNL

These are yes or no findings as the source states them, for the method shown. Some results given as binding are weak or reduced against the parent protein; the word gives no strength. Where a sequence is shown, tags or fusion partners need not be part of it.

B1: N-terminal His-tagged polycystic kidney domain 2 (PKD2 domain) from the AAV receptor (receptor)
chain: IAIVSPQFQEISLPTTSTVIDGSQSTDDDKIVQYHWEELKGPLREEKISEDTAILKLSKLVPGNYTFSLTVVDSDGATNSTTANLTVNKA
Consider B1, for which the binding result is on record as “binds”.

(Values after US20230391832A1, “CO[…]-BINDING POLYPEPTIDES AND METHODS OF USING THE SAME” (Isolere Bio, Inc., priority 2022, published 2023).)
